Values joined by “and” are separate entries in the source; they are usually repeats but may differ in a detail not shown here. Identical values can stand only once. The list shows a part of the results. Repeats in this data set agree poorly, so a single value says little.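 HEK293T cells were given each compound shortly before transfection with a reporter in which red mCherry is followed by the SARS-CoV-2 frameshift element and then GFP in the −1 frame, so GFP appears only after frameshifting.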
Test system: HEK293T
Experiment: percent viability (nuclei count) relative to control; higher = more viable cells
Details: 10 µM; 24 h

COc1cc2c(cc1OC)C(=O)C(CC1CCN(Cc3ccccc3)CC1)C2 (stereo not drawn)
percent viability: 300%

N[C@H](Cc1cnc[nH]1)C(=O)O
percent viability: 149%

COC(=O)Nc1nc2cc([S+]([O-])c3ccccc3)ccc2[nH]1 (stereo not drawn) [oxfendazole]
percent viability: 64.6%

C[C@]12C[C@H](O)[C@H]3[C@@H](CCC4=CC(=O)CC[C@@]43C)[C@@H]1CC[C@@H]2C(=O)CO [Corticosterone]
percent viability: 120%

CC1(CN2CCC(n3c(=O)[nH]c4ccccc43)CC2)OCc2ccccc2-n2cccc21 (stereo not drawn) [zaldaride]
percent viability: 162%

CC(CN(C)C)CN1c2ccccc2CCc2ccccc21 (stereo not drawn)
percent viability: 471%

CC(C)CN(C[C@@H](O)[C@H](Cc1ccccc1)NC(=O)O[C@H]1CO[C@H]2OCC[C@H]21)S(=O)(=O)c1ccc(N)cc1 [darunavir]
percent viability: 213%

O=C1CC(c2cccc(Br)c2)C(=O)N1 (stereo not drawn) [brosuximide]
percent viability: 257%

CC(Oc1ccccc1)C(=O)N[C@@H]1C(=O)N2[C@@H]1SC(C)(C)[C@@H]2C(=O)O (stereo partly drawn)
percent viability: 201%

CC1(C)O[C@@H]2C[C@H]3[C@@H]4C[C@H](F)C5=CC(=O)C=C[C@]5(C)[C@H]4[C@@H](O)C[C@]3(C)[C@]2(C(=O)CO)O1
percent viability: 274%

CCOC(=O)C1=C[C@@H](OC(CC)CC)[C@H](NC(C)=O)[C@@H](N)C1 [oseltamivir]
percent viability: 203%

CC[C@@]1(O)C(=O)OCc2c1cc1n(c2=O)Cc2cc3cc(O)ccc3nc2-1 [10-Hydroxycamptothecin]
percent viability: 86.9%

C[C@H](Cc1ccc(O)c(O)c1)[C@@H](C)Cc1ccc(O)c(O)c1 [Actinex]
percent viability: 13.7%

NS(=O)(=O)c1cc2c(cc1Cl)N=C(CSCc1ccccc1)NS2(=O)=O [benzthiazide]
percent viability: 195%

CN1C2CCCC1CC(NC(=O)c1nn(C)c3ccccc13)C2 (stereo not drawn) [granisetron]
percent viability: 133%

NC(=O)NCCC[C@H](N)C(=O)O
percent viability: 232% and 218%

O=C(NCCO[N+](=O)[O-])c1cccnc1 [nicorandil]
percent viability: 156%

CC1(C)S[C@@H]2[C@H](N3C(=O)[C@@H](c4ccccc4)NC3(C)C)C(=O)N2[C@H]1C(=O)O [Hetacillin]
percent viability: 215%

CCN(CC)CCOc1cc2oc(=O)cc(C)c2cc1OCCN(CC)CC [oxamarin]
percent viability: 424%

CCCc1nn(C)c2c(=O)[nH]c(-c3cc(S(=O)(=O)N4CCN(C)CC4)ccc3OCC)nc12 [sildenafil]
percent viability: 273%

OC(CNCC(O)C1CCc2cc(F)ccc2O1)C1CCc2cc(F)ccc2O1 (stereo not drawn) [nebivolol]
percent viability: 292% and 277%

Oc1ccc(Cl)c2cccnc12 [cloxiquine]
percent viability: 152%

CCCC1C(=O)N2C(N(C)C)=Nc3ccc(C)cc3N2C1=O (stereo not drawn) [azapropazone]
percent viability: 397%

O=C(O)CCC(=O)c1ccc(-c2ccccc2)cc1 [fenbufen]
percent viability: 222% and 125%

C1CCN2C[C@H]3C[C@H](CN4CCCC[C@@H]34)[C@H]2C1
percent viability: 227%

O=C(O[C@@H]1C[C@@H]2C[C@H]3C[C@H](C1)N2CC3=O)c1c[nH]c2ccccc12 [dolasetron]
percent viability: 133%

CC(C)(CO)[C@@H](O)C(=O)NCCCO [dexpanthenol]
percent viability: 287%

CCN(CC)CCOCCOC(=O)C(CC)(CC)c1ccccc1
percent viability: 67.3%

Nc1[nH]cnc2ncnc1-2 [Adenine]
percent viability: 202%

N.N.O=C([O-])C[O-].[Pt+2] [Nedaplatin]
percent viability: 196%

CN1[C@@H]2CC[C@H]1C[C@@H](OC(=O)c1c[nH]c3ccccc13)C2 [Tropisetron]
percent viability: 185%

O=C(O)c1cc(/N=N/c2ccc(O)c(C(=O)O)c2)ccc1O
percent viability: 137%

O=C(N/N=C/c1ccc([N+](=O)[O-])o1)c1ccc(O)cc1 [nifuroxazide]
percent viability: 200%

CC1(C)[C@H](C(=O)O)N2C(=O)C[C@H]2S1(=O)=O
percent viability: 163%

CC(O)Cn1cnc2c1c(=O)n(C)c(=O)n2C (stereo not drawn) [proxyphylline]
percent viability: 317%

O=C[C@H](O)[C@H]1OC(=O)[C@@H](O)[C@H]1O [glucurolactone]
percent viability: 152%

CC(=O)[C@H]1CC[C@H]2[C@@H]3CC=C4C[C@@H](OC(=O)CCC(=O)O)CC[C@]4(C)[C@H]3CC[C@]12C
percent viability: 226%

C=Cc1cc(O)cc2nc(-c3ccc(O)c(F)c3)oc12 [prinaberel]
percent viability: 47.1%

c1cc(CN2CCCNCCNCCCNCC2)ccc1CN1CCCNCCNCCCNCC1 [Mozobil]
percent viability: 323% and 300%

CC(=O)Oc1ccc(C(=C2CCCCC2)c2ccc(OC(C)=O)cc2)cc1 [cyclofenil]
percent viability: 72.8%

COc1cc([S+](C)[O-])ccc1-c1nc2cccnc2[nH]1 (stereo not drawn) [sulmazole]
percent viability: 207%

C#C[C@]1(O)CC[C@H]2[C@@H]3CCC4=CC(=NO)CC[C@@H]4[C@H]3CC[C@@]21CC (mixture of isomers) [Norelgestromin]
percent viability: 309%

Cc1cccc(C)c1NC(=O)c1ccc(N)cc1 [ameltolide]
percent viability: 131%

CN(C)c1cc(NC(=O)CNC(C)(C)C)c(O)c2c1C[C@H]1C[C@H]3[C@H](N(C)C)C(=O)C(C(N)=O)=C(O)[C@@]3(O)C(=O)C1=C2O [tigecycline]
percent viability: 246%

CC(=O)N[C@@H](CSC(C)=O)C(=O)O [dacisteine]
percent viability: 57.9%

NNCCc1ccccc1 [phenelzine]
percent viability: 184%

O=C(O)c1ccccc1Nc1cc(Cl)ccc1C(=O)O [lobenzarit]
percent viability: 237%

COCCOc1cnc(NS(=O)(=O)c2ccccc2)nc1 [glymidine]
percent viability: 240%

O=C1CCC(c2ccc(-n3ccnc3)cc2)=NN1 [imazodan]
percent viability: 94.6%

CCOC(=O)c1cnc2c(cnn2CC)c1NN=C(C)C [etazolate]
percent viability: 200%

CC(C)CN(C[C@@H](O)[C@H](Cc1ccccc1)NC(=O)O[C@H]1CCOC1)S(=O)(=O)c1ccc(N)cc1 [amprenavir]
percent viability: 198%

CC(C)(C)NCC(O)c1ccc(O)c(CO)c1 (stereo not drawn) [salbutamol]
percent viability: 400% and 159%

CC1=C[C@H](O)CC(C)(C)[C@H]1/C=C/C(C)=C/C=C/C(C)=C/C=C/C=C(C)/C=C/C=C(C)/C=C/C1=C(C)C[C@@H](O)CC1(C)C
percent viability: 216%

Source: the supplement of paper PMC8256030
